Source: article PMC3079584
Results are given in words; binding and its absence hold for the method and conditions named. Binding seen in cells or lysates may run through a third protein. Some binding calls cover weakened binding; strength is not graded here. Sequences can lack the tags named with a protein.

Target: She2p-Myc (wild type) (Saccharomyces cerevisiae), P36068
Experiment: co-IP; anti-Myc antibody (9E11) on magnetic Protein G beads precipitates She2p-Myc from yeast (she2Δ background); Western blot against HA-tagged She3p; two independent blots quantified
Settings: remark: other sources report otherwise

binding: binds
B1: HA-tagged She3p, P38272 1-425 (protein)
chain: MSDQDNTQTSSSKLAPHHNIFMANLESSPTKDRNTSSQNASSSRVIESLHDQIDMLTKTNLQLTTQSQNLLSKLELAQSKESKLLENLNLLKNENENLNSIFERKNKKLKELEKDYSELSNRYNEQKEKMDQLSKLAKNSSAIEQSCSEKLQNMEVNYNSLLESQNLYRDHYSDEISKLNEKIGLLELELSNQNLNYGSDTSSNSDIELNLNKFNDSVKDLKSLETEKDSKLSKIITHSLDELNLQSWLNLYQTNENLISTFAEKMDLKDVLKRNDEKISNKGAVVQTLKKNVQTQVESNNADALSSNNAQDMLPIKMVKLRKTPNTNDSSSNGNSSNNKRRSFYTASPLLSSGSIPKSASPVLPGVKRTASVRKPSSSSSKTNVTHNNDPSTSPTISVPPGVTRTVSSTHKKKGNSMVVHGAQS
